Source: the supplement of paper PMC10849652
This is one part of the list.

Chains of the proteins cited; added tags and fusions are not shown. Lines headed by an entry give the natural chain unless they say otherwise; changes in a name come on top.
UniProt P78347: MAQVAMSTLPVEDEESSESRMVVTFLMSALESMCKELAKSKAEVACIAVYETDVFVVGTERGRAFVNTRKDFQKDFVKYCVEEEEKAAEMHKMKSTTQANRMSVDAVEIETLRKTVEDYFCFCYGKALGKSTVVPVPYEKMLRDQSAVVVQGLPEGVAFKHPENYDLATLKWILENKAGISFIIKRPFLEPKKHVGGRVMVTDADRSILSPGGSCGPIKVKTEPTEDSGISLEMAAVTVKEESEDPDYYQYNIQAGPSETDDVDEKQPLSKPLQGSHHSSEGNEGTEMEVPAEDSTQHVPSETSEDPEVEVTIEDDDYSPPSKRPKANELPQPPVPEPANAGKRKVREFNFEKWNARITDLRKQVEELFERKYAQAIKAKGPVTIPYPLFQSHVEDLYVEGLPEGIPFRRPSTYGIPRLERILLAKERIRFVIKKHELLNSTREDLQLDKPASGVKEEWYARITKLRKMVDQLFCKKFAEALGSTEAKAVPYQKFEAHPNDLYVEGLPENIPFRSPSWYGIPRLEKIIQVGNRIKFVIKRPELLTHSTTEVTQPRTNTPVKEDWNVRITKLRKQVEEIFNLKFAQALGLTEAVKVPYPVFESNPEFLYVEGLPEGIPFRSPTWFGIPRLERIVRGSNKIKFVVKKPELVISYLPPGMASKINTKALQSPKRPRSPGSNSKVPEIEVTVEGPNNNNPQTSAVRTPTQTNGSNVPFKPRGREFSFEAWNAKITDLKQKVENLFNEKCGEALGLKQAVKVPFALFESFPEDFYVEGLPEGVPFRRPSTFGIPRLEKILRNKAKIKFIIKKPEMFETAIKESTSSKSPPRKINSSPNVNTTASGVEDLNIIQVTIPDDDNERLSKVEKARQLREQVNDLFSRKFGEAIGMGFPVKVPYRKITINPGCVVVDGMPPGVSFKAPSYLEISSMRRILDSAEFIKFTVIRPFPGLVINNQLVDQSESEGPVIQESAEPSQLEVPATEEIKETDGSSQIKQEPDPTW
UniProt O75367, whole entry, looked up: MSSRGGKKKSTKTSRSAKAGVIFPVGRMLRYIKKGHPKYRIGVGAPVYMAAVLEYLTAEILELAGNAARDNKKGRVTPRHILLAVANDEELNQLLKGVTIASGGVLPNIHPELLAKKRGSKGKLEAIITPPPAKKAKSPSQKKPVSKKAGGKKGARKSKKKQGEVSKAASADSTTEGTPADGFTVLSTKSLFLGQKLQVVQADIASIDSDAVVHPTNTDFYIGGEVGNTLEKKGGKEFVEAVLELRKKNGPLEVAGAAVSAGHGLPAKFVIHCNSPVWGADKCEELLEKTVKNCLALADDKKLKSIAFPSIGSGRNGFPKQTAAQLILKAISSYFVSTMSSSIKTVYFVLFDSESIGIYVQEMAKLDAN
UniProt Q9Y2Q3: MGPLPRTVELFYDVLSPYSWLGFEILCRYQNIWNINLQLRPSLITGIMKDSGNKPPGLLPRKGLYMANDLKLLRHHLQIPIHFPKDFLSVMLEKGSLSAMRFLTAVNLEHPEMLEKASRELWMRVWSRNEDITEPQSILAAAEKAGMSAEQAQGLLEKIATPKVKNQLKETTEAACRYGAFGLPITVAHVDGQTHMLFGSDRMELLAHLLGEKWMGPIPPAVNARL
UniProt O75791: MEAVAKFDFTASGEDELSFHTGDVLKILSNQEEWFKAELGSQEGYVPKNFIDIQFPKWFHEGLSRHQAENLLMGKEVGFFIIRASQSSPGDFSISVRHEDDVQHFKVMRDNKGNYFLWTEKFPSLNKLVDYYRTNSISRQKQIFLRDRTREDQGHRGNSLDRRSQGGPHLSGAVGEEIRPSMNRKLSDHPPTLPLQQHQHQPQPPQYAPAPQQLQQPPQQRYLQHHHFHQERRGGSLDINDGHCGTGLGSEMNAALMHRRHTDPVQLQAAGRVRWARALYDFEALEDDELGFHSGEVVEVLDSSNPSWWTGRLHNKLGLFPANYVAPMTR
UniProt P30711: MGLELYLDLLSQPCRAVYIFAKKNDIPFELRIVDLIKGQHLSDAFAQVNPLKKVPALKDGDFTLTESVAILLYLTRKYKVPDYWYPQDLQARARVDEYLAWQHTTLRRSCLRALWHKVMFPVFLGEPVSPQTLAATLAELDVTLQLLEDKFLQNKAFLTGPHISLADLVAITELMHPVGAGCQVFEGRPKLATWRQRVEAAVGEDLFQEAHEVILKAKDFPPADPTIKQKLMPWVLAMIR
UniProt Q12849: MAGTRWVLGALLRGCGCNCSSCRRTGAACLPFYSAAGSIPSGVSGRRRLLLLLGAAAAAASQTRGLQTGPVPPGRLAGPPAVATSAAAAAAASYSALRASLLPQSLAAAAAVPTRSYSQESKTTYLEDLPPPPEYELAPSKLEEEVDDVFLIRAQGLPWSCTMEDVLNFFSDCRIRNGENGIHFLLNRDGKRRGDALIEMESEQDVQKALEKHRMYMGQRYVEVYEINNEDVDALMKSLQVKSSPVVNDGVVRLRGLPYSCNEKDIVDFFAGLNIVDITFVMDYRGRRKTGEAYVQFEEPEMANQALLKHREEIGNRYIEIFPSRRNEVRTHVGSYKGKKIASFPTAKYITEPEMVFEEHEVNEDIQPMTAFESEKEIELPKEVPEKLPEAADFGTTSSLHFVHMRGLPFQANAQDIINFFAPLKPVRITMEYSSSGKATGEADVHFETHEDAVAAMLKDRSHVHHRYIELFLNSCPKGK
UniProt P04921: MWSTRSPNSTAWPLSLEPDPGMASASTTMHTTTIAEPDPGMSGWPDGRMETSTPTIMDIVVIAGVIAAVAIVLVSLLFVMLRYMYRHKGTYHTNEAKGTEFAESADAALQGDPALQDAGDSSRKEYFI
UniProt P62993, whole entry, looked up: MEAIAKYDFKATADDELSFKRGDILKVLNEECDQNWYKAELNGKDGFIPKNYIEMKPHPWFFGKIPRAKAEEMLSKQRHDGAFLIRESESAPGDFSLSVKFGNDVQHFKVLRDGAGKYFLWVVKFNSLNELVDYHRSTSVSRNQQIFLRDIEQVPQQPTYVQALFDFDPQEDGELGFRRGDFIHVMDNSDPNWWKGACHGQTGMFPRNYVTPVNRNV
UniProt Q86XA9: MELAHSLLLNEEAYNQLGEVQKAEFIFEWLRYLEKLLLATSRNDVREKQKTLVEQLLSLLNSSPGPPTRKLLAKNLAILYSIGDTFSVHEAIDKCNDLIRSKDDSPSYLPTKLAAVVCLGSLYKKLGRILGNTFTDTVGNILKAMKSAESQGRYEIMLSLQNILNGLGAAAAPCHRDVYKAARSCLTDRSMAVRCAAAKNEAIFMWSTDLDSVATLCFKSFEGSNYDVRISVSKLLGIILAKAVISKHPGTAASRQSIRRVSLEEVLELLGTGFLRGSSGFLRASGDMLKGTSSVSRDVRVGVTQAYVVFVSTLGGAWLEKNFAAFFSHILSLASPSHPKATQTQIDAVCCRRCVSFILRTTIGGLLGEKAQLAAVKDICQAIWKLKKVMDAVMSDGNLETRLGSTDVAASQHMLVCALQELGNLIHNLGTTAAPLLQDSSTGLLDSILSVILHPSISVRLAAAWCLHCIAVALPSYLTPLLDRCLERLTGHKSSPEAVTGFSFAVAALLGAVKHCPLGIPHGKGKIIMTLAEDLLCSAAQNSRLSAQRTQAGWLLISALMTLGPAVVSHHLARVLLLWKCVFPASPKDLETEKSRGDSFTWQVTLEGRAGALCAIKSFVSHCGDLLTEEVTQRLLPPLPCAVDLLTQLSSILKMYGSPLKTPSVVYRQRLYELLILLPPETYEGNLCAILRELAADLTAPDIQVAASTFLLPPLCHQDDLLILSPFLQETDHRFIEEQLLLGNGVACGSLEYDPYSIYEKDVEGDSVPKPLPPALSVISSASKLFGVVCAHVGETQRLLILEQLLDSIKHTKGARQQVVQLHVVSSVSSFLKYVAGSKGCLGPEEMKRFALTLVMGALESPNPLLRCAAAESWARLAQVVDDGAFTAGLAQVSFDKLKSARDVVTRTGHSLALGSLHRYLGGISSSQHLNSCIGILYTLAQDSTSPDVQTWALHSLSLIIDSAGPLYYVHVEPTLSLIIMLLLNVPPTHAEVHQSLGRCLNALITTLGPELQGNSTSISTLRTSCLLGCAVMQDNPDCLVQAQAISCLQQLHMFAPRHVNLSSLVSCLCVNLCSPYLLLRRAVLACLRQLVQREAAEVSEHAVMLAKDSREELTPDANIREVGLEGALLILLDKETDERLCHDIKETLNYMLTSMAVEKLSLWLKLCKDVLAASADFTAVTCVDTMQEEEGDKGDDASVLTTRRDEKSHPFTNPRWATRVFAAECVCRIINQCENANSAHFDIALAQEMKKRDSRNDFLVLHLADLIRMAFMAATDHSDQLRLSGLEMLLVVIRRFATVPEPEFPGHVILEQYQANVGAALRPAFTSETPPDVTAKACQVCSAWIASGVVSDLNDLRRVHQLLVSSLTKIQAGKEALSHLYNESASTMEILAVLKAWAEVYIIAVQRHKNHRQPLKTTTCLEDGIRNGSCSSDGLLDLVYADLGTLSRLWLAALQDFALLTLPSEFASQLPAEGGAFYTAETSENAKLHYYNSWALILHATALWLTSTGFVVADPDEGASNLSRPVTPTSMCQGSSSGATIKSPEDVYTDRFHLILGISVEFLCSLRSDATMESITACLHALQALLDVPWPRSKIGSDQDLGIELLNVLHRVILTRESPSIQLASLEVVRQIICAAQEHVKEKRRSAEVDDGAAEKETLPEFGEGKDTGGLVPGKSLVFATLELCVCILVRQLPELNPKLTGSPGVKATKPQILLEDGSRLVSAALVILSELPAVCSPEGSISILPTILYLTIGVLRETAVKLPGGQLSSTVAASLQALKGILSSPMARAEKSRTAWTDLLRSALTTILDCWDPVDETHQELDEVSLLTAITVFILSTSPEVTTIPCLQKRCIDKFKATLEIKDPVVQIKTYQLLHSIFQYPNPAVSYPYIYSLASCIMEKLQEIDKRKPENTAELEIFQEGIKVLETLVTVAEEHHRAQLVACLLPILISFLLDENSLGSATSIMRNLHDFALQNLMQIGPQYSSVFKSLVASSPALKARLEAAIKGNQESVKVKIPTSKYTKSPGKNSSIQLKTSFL
UniProt P32780: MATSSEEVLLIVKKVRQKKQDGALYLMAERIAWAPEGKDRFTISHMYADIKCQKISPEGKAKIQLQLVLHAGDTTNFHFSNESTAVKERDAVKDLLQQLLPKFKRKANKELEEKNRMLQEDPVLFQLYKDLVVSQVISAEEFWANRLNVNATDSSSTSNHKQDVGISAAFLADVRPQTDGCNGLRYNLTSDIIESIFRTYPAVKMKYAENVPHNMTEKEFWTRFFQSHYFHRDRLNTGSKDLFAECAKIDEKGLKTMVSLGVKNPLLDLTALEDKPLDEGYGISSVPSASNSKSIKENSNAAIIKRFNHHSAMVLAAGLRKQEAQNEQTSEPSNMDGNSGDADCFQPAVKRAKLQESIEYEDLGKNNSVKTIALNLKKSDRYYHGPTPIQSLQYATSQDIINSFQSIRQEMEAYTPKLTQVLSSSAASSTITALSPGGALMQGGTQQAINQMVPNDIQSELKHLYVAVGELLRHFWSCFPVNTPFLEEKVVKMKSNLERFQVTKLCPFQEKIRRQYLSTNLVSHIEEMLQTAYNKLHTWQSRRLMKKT
UniProt P25098: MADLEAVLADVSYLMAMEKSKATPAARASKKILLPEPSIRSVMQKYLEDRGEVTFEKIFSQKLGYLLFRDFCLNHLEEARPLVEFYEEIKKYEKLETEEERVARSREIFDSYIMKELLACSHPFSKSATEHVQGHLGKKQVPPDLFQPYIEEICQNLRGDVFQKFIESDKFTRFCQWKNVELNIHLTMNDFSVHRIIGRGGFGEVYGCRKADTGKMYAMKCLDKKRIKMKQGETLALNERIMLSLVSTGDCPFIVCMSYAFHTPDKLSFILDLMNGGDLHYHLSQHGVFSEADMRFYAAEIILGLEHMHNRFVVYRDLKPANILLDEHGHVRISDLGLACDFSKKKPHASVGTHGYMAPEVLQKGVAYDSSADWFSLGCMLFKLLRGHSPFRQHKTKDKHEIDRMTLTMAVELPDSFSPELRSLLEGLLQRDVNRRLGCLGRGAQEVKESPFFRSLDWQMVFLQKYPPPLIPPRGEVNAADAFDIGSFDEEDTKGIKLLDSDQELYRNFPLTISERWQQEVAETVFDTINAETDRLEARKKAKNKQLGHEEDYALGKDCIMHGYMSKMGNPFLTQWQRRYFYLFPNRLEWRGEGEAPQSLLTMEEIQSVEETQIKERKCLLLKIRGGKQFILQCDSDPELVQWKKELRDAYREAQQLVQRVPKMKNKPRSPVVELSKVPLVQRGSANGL
UniProt Q92522: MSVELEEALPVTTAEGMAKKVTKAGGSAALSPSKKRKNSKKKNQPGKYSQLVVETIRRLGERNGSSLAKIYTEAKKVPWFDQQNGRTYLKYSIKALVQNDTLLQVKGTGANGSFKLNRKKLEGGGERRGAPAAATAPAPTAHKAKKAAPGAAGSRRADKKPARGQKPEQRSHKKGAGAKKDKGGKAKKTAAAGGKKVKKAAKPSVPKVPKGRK

Experiments:
Test in all cases: log2 fold change, soluble protein after heating vs DMSO (PISA); higher = thermal stabilisation; K562 lysate, 10 uM; active = over 0.2 and 3.5 SD of the protein, either way, in both replicates (recomputed)
lapatinib = compound: CS(=O)(=O)CCNCc1ccc(-c2ccc3ncnc(Nc4ccc(OCc5cccc(F)c5)c(Cl)c4)c3c2)o1 [lapatinib]
Summary of the method: (§1)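 K562 pellets were dounce-homogenised in PBS pH 7.4 with 1 mM MgCl2, and the crude extract at 1 mg/mL protein was treated with 10 μM compound for 30 min. Aliquots were heated for 3 min across 48°C-58°C, pooled, and brought to 0.5% NP-40 at 4°C; soluble protein was the supernatant after 21,000xg for 90 min. Soluble protein was quantified by TMTpro 16plex LC-MS/MS with channel sums equalised, and reported as log2 fold change in thermal stability against DMSO controls, with values from duplicates.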

pictilisib = compound: CS(=O)(=O)N1CCN(Cc2cc3nc(-c4cccc5[nH]ncc45)nc(N4CCOCC4)c3s2)CC1 [pictilisib]
Summary of the method: as §1

crizotinib = compound: C[C@@H](Oc1cc(-c2cnn(C3CCNCC3)c2)cnc1N)c1c(Cl)ccc(F)c1Cl [crizotinib]
Summary of the method: as §1

[1] = compound: C[C@H](C1=CC=C(C=C1)C(=O)NC2=C3C=CNC3=NC=C2)N
Summary of the method: as §1

duvelisib = compound: C[C@H](Nc1ncnc2nc[nH]c12)c1cc2cccc(Cl)c2c(=O)n1-c1ccccc1 [duvelisib]
Summary of the method: as §1

gandotinib = compound: Cc1cc(Nc2cc(CN3CCOCC3)c3nc(C)c(Cc4ccc(Cl)cc4F)n3n2)n[nH]1 [gandotinib]
Summary of the method: as §1

tozasertib = compound: Cc1cc(Nc2cc(N3CCN(C)CC3)nc(Sc3ccc(NC(=O)C4CC4)cc3)n2)n[nH]1 [tozasertib]
Summary of the method: as §1

doramapimod = compound: Cc1ccc(-n2nc(C(C)(C)C)cc2NC(=O)Nc2ccc(OCCN3CCOCC3)c3ccccc23)cc1 [doramapimod]
Summary of the method: as §1

bafetinib = compound: Cc1ccc(NC(=O)c2ccc(CN3CC[C@H](N(C)C)C3)c(C(F)(F)F)c2)cc1Nc1nccc(-c2cncnc2)n1 [bafetinib]
Summary of the method: as §1

[2] = compound: Cc1cccc(CC(=O)N2CCc3c2ccc(-c2cn(C)c4ncnc(N)c24)c3F)n1
Summary of the method: as §1

nilotinib = compound: Cc1cn(-c2cc(NC(=O)c3ccc(C)c(Nc4nccc(-c5cccnc5)n4)c3)cc(C(F)(F)F)c2)cn1 [nilotinib]
Summary of the method: as §1

[3] = compound: Cc1nc(Nc2n[nH]c3c2CN(C(=O)N[C@H](CN(C)C)c2ccccc2)C3(C)C)c2sccc2n1
Summary of the method: as §1

dasatinib = compound: Cc1nc(Nc2ncc(C(=O)Nc3c(C)cccc3Cl)s2)cc(N2CCN(CCO)CC2)n1 [dasatinib]
Summary of the method: as §1

[4] = compound: Cc1ncc(-c2ccnc(Nc3ccc(S(C)(=O)=O)cc3)n2)n1C(C)C
Summary of the method: as §1

[5] = compound: Cn1cc(-c2ccc3c(c2)CCN3C(=O)Cc2cccc(C(F)(F)F)c2)c2c(N)ncnc21
Summary of the method: as §1

quisinostat = compound: Cn1cc(CNCC2CCN(c3ncc(C(=O)NO)cn3)CC2)c2ccccc21 [quisinostat]
Summary of the method: as §1

tipifarnib = compound: Cn1cncc1[C@@](N)(c1ccc(Cl)cc1)c1ccc2c(c1)c(-c1cccc(Cl)c1)cc(=O)n2C [tipifarnib]
Summary of the method: as §1

[6] = compound: NC(=O)Nc1cc(-c2cccc(F)c2)sc1C(=O)N[C@H]1CCCNC1
Summary of the method: as §1

[7] = compound: NC(=O)c1cnc(N[C@@H]2CCCC[C@@H]2N)nc1Nc1cccc(-n2nccn2)c1
Summary of the method: as §1

[8] = compound: NC1(c2ccc(-c3nc4ccn5c(=O)[nH]nc5c4cc3-c3ccccc3)cc2)CCC1
Summary of the method: as §1

Measured: log2 fold change

GTF2I (UniProt P78347)
inactive: lapatinib -0.005 | pictilisib -0.011 | crizotinib -0.039 | [1] -0.01 | duvelisib 0.016 | gandotinib -0.086 | tozasertib -0.004 | doramapimod 0.018 | bafetinib -0.066 | [2] 0.027 | nilotinib 0.001 | [3] 0.002 | dasatinib -0.042 | [4] -0.011 | [5] 0.035 | quisinostat -0.006 | tipifarnib -0.008 | [6] 0.034 | [7] 0 | [8] -0.014

GSPT1 isoform 3 (UniProt P15170)
inactive: lapatinib -0.002 | pictilisib 0.009 | crizotinib 0.033 | [1] -0.018 | duvelisib -0.013 | gandotinib 0.004 | tozasertib -0.01 | doramapimod -0.048 | bafetinib -0.005 | [2] -0.021 | nilotinib 0.024 | [3] -0.001 | dasatinib -0.007 | [4] 0.022 | [5] 0.005 | quisinostat 0.043 | tipifarnib 0.008 | [6] -0.012 | [7] -0.017 | [8] 0.004

HAUS8 (UniProt Q9BT25)
inactive: lapatinib -0.022 | pictilisib -0.02 | crizotinib -0.055 | [1] 0.057 | duvelisib -0.075 | gandotinib 0.045 | tozasertib 0.027 | doramapimod -0.007 | bafetinib -0.037 | [2] 0.027 | nilotinib 0.025 | [3] 0.026 | dasatinib -0.073 | [4] 0.005 | [5] 0.015 | quisinostat -0.085 | tipifarnib 0.004 | [6] 0.042 | [7] 0.02 | [8] 0.006

H2AFY (UniProt O75367)
inactive: lapatinib -0.021 | pictilisib 0.036 | crizotinib 0.051 | [1] -0.135 | duvelisib 0.01 | gandotinib 0.084 | tozasertib -0.108 | doramapimod -0.138 | bafetinib -0.011 | [2] 0.049 | nilotinib 0.013 | [3] 0.003 | dasatinib -0.087 | [4] -0.003 | [5] 0.005 | quisinostat -0.099 | tipifarnib 0.005 | [6] 0.058 | [7] 0.001 | [8] -0.034

GSTK1 (UniProt Q9Y2Q3)
inactive: lapatinib 0.007 | pictilisib -0.032 | crizotinib -0.006 | [1] -0.003 | duvelisib 0.007 | gandotinib -0.05 | tozasertib 0.028 | doramapimod -0.005 | bafetinib -0.02 | [2] 0.027 | nilotinib -0.018 | [3] 0.03 | dasatinib 0.001 | [4] 0.027 | [5] -0.013 | quisinostat 0.02 | tipifarnib 0.022 | [6] -0.004 | [7] 0.02 | [8] -0.03

GRAP2 (UniProt O75791)
inactive: lapatinib 0 | pictilisib -0.08 | crizotinib -0.006 | [1] 0.101 | duvelisib -0.083 | gandotinib -0.046 | tozasertib 0.022 | doramapimod -0.013 | bafetinib 0.008 | [2] -0.011 | nilotinib 0.015 | [3] 0.007 | dasatinib 0.032 | [4] -0.002 | [5] 0.001 | quisinostat 0.057 | tipifarnib 0.038 | [6] 0.008 | [7] -0.005 | [8] 0.011

GSTT1 (UniProt P30711)
inactive: lapatinib 0.031 | pictilisib -0.006 | crizotinib 0.011 | [1] 0.034 | duvelisib 0.023 | gandotinib -0.052 | tozasertib -0.016 | doramapimod 0.01 | bafetinib -0.009 | [2] -0.058 | nilotinib -0.022 | [3] 0.023 | dasatinib -0.031 | [4] 0.086 | [5] -0.036 | quisinostat -0.025 | tipifarnib 0.01 | [6] -0.019 | [7] -0.015 | [8] -0.011

GRSF1 (UniProt Q12849)
inactive: lapatinib -0.001 | pictilisib 0.015 | crizotinib -0.031 | [1] -0.032 | duvelisib 0.006 | gandotinib 0.044 | tozasertib 0.024 | doramapimod 0.025 | bafetinib -0.041 | [2] 0.111 | nilotinib -0.006 | [3] 0.007 | dasatinib -0.024 | [4] 0.018 | [5] 0.019 | quisinostat 0.002 | tipifarnib -0.013 | [6] 0.02 | [7] 0.017 | [8] -0.009

GSTZ1 (UniProt G3V4T6)
inactive: lapatinib 0 | pictilisib 0.04 | crizotinib -0.015 | [1] -0.067 | duvelisib 0.028 | gandotinib 0.061 | tozasertib 0.004 | doramapimod -0.035 | bafetinib -0.071 | [2] 0.146 | nilotinib 0.026 | [3] 0.009 | dasatinib -0.024 | [4] -0.016 | [5] 0.083 | quisinostat 0.016 | tipifarnib 0.014 | [6] 0.029 | [7] -0.012 | [8] -0.007

GYPC (UniProt P04921)
inactive: lapatinib 0.032 | pictilisib -0.048 | crizotinib 0.026 | [1] -0.008 | duvelisib -0.068 | gandotinib -0.004 | tozasertib 0.021 | doramapimod -0.047 | bafetinib 0 | [2] -0.04 | nilotinib 0.055 | [3] -0.05 | dasatinib 0.006 | [4] 0.091 | [5] 0.017 | quisinostat -0.026 | tipifarnib 0.216 | [6] 0.136 | [7] 0.03 | [8] -0.005

GRB2 (UniProt P62993)
inactive: lapatinib 0.009 | pictilisib 0.033 | crizotinib 0.03 | [1] 0.025 | duvelisib 0.023 | gandotinib 0.005 | tozasertib 0.021 | doramapimod -0.023 | bafetinib 0.017 | [2] -0.037 | nilotinib 0.014 | [3] 0.02 | dasatinib 0.019 | [4] -0.005 | [5] -0.007 | quisinostat -0.004 | tipifarnib 0.027 | [6] -0.001 | [7] -0.024 | [8] -0.011

HEATR5A (UniProt Q86XA9)
inactive: lapatinib 0.001 | pictilisib -0.058 | crizotinib -0.023 | [1] 0.022 | duvelisib -0.008 | gandotinib -0.023 | tozasertib 0.012 | doramapimod 0 | bafetinib 0.03 | [2] -0.004 | nilotinib 0.005 | [3] 0.029 | dasatinib 0.018 | [4] 0.004 | [5] 0 | quisinostat 0.031 | tipifarnib -0.048 | [6] 0.024 | [7] 0.012 | [8] -0.033

GTF2H1 (UniProt P32780)
inactive: lapatinib -0.03 | pictilisib -0.017 | crizotinib -0.028 | [1] 0.032 | duvelisib 0.023 | gandotinib 0.035 | tozasertib -0.019 | doramapimod -0.001 | bafetinib -0.03 | [2] -0.021 | nilotinib 0.009 | [3] 0.013 | dasatinib -0.012 | [4] -0.04 | [5] 0.043 | quisinostat -0.064 | tipifarnib 0.084 | [6] 0.06 | [7] 0.037 | [8] -0.036

GRK2 (UniProt P25098)
inactive: lapatinib -0.063 | pictilisib 0.015 | crizotinib -0.038 | [1] 0.024 | duvelisib 0.017 | gandotinib 0.077 | tozasertib -0.02 | doramapimod 0.033 | bafetinib -0.017 | [2] -0.035 | nilotinib 0.001 | dasatinib -0.058 | [4] 0.01 | [5] 0 | quisinostat 0.034 | tipifarnib -0.001 | [7] 0.043 | [8] -0.027
active: [3] 0.393 | [6] 0.397

H1FX (UniProt Q92522)
inactive: lapatinib -0.008 | pictilisib 0.001 | crizotinib -0.005 | [1] 0.004 | duvelisib -0.025 | gandotinib -0.026 | tozasertib 0.007 | doramapimod -0.003 | bafetinib -0.047 | [2] 0.006 | nilotinib 0.03 | [3] -0.02 | dasatinib 0.017 | [4] 0.029 | [5] -0.001 | quisinostat -0.017 | tipifarnib 0.043 | [6] 0.044 | [7] -0.004 | [8] -0.011

GSE1 (UniProt Q14687)
inactive: lapatinib 0.006 | pictilisib -0.032 | crizotinib -0.014 | [1] -0.073 | duvelisib -0.015 | gandotinib 0.011 | tozasertib 0.008 | doramapimod -0.019 | bafetinib -0.006 | [2] 0.051 | nilotinib -0.017 | [3] 0.007 | dasatinib -0.064 | [4] 0.036 | [5] -0.005 | quisinostat -0.093 | tipifarnib -0.02 | [6] 0.059 | [7] 0.012 | [8] 0.029
